The test system of test [1] is collagen type I (Col1a2) gene expression in rat tail tendon fascicles. Briefly: Ex vivo assay, Col1a2 mRNA in tendon fascicles (qPCR). Type of test: cell-based, Sprague Dawley rat. To be noted: read-out: Ex vivo Col1a2 (EC50 uM). A general note: Real-time PCR tracks product formation cycle by cycle.
The subject of test [2] is Tenomodulin (Tnmd) gene expression in rat tail tendon fascicles. Briefly: Ex vivo assay, Tnmd mRNA in tendon fascicles (qPCR). To be noted: read-out: Ex vivo Tnmd (EC50 uM). Type of test: cell-based, Sprague Dawley rat.
The subject of test [3] is Scleraxis (Scx) gene transcriptional activation in TT-D6 Scx-luciferase (ScxL) cell line. Briefly: SCX-LUC in vitro assay (Scx-luciferase reporter). To be noted: Mus musculus, read-out: Scx-Luc (EC50 uM). Type of test: cell-based. (In general: Reporter assays use an easily measured gene product as a stand-in for the process of interest.)
Test [4] deals with recombinant human Jak3 (aa811-1124) (Homo sapiens (Human), UniProt P52333). The test is classed as biochemical.

By UniProt entry, the sequences of proteins in these tests, tags left out. Residues count along the entry.
UniProt P52333, 811-1124: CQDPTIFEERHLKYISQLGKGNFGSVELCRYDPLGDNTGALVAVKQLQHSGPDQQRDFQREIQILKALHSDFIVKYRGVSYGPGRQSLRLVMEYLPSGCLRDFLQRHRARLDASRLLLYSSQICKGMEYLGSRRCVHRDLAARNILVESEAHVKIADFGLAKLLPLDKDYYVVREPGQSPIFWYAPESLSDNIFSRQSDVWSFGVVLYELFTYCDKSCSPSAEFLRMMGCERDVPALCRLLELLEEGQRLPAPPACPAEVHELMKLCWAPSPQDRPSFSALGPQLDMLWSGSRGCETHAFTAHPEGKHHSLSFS

As to `C[C@@H]1CCN(C(=O)CC#N)C[C@@H]1N(C)c1ncnc2[nH]ccc12` [reference compound], the EC50 stood at 2.75 µM in test [1], 1.26 µM in test [2] and 0.37 µM in test [3].
As to `CC[C@@](C)(Nc1ccnc(-c2c[nH]c3ncccc23)n1)C(=O)NCC(F)(F)F` [reference compound], the IC50 in test [4] turned out to be 0.01 µM.

One may read the EC50 as the midpoint of the concentration-response curve. The IC50 is the concentration at which inhibition is half-maximal.

Values taken from patent publication US10112907B2, “Substituted indazoles for treating tendon and/or ligament injuries” (NOVARTIS AG, priority 2016, dated 2018).
